Source: the supplement of paper PMC10849652
Some of the results follow.

Sequences of proteins named here, by UniProt entry; tags and fusion partners are left off. A change or cut given only in a name is not applied to a line headed by its entry.
UniProt Q8N5Y2: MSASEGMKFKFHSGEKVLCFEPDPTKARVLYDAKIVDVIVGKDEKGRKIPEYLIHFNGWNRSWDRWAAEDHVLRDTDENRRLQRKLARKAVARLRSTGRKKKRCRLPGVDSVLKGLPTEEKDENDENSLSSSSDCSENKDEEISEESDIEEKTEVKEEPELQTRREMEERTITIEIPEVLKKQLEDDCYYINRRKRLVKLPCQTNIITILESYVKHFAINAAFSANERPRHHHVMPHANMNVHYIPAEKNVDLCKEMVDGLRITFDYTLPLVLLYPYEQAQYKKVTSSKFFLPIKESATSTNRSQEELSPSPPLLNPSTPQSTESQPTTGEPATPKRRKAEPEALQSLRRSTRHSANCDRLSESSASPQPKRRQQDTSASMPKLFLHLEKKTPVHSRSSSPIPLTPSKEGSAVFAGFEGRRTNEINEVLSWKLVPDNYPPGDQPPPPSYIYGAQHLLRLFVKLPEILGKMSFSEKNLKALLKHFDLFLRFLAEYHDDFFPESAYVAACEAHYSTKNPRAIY
UniProt O43196: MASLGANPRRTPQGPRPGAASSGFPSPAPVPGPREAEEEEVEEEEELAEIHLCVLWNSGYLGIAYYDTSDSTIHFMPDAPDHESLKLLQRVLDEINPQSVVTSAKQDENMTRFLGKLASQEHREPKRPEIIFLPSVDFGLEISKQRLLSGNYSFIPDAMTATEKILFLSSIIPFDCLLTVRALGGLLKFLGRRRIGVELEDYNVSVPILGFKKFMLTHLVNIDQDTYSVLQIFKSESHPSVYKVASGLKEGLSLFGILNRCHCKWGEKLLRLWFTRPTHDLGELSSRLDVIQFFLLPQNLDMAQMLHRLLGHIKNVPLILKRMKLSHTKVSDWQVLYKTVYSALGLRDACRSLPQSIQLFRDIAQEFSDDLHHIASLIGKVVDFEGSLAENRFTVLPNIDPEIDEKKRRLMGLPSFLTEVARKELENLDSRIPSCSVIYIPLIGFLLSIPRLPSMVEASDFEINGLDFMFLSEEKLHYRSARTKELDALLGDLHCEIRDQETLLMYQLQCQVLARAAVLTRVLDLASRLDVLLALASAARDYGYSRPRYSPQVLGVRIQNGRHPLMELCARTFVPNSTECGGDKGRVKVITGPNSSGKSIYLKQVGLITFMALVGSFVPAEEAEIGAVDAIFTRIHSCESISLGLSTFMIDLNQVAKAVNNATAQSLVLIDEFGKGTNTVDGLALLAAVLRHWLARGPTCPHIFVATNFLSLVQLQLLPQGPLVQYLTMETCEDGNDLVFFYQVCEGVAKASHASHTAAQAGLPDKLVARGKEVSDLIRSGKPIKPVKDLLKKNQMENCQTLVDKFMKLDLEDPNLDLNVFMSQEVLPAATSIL
UniProt Q9H2K0, whole entry, looked up: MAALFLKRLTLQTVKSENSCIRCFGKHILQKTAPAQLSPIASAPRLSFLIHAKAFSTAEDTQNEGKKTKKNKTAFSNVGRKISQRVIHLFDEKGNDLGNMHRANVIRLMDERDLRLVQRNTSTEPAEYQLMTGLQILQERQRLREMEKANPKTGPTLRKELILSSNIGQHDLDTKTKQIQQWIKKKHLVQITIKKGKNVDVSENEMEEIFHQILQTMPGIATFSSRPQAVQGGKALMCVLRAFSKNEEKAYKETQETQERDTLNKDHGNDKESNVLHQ
UniProt Q6P1R3: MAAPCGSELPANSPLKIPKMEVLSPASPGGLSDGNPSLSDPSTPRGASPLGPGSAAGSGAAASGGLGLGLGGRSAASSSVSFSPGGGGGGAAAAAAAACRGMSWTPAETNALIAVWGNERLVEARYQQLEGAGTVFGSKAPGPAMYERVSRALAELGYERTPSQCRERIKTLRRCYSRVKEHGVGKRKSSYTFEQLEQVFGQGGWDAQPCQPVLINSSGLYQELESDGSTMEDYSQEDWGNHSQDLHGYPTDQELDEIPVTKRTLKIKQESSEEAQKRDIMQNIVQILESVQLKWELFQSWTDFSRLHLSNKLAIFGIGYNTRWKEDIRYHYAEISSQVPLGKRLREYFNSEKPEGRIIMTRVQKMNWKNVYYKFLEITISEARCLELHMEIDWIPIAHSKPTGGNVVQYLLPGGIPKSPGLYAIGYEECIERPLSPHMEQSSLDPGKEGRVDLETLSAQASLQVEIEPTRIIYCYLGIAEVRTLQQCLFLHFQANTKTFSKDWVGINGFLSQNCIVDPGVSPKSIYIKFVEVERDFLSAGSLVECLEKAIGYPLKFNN
UniProt Q93083: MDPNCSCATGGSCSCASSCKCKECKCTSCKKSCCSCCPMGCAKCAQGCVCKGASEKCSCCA
UniProt Q96DP5: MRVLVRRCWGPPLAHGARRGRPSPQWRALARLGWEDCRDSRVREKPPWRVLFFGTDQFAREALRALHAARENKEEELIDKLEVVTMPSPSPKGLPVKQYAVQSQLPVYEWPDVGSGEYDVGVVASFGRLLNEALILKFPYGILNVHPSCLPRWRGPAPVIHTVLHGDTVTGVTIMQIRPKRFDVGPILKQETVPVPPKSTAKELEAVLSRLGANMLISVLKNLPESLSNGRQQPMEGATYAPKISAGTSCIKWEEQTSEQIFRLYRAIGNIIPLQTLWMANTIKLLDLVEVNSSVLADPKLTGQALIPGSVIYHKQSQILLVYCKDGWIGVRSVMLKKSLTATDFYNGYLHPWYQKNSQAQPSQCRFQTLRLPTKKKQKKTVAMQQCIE
UniProt P00414, whole entry, looked up: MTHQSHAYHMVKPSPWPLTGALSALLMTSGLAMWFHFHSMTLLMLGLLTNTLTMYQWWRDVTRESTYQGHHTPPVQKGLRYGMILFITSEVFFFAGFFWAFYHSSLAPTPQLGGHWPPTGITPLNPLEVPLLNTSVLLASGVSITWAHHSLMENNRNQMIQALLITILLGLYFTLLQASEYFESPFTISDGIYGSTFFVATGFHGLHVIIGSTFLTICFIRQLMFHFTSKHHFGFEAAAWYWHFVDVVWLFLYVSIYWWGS
UniProt Q9UJ68: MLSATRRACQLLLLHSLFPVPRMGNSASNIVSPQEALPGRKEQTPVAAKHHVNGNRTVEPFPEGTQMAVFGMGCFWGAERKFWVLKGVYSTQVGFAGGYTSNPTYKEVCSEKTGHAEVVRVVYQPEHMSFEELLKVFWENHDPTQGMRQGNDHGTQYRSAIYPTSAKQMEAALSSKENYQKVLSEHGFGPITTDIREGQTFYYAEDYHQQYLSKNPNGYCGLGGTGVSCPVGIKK
UniProt Q9NXD2: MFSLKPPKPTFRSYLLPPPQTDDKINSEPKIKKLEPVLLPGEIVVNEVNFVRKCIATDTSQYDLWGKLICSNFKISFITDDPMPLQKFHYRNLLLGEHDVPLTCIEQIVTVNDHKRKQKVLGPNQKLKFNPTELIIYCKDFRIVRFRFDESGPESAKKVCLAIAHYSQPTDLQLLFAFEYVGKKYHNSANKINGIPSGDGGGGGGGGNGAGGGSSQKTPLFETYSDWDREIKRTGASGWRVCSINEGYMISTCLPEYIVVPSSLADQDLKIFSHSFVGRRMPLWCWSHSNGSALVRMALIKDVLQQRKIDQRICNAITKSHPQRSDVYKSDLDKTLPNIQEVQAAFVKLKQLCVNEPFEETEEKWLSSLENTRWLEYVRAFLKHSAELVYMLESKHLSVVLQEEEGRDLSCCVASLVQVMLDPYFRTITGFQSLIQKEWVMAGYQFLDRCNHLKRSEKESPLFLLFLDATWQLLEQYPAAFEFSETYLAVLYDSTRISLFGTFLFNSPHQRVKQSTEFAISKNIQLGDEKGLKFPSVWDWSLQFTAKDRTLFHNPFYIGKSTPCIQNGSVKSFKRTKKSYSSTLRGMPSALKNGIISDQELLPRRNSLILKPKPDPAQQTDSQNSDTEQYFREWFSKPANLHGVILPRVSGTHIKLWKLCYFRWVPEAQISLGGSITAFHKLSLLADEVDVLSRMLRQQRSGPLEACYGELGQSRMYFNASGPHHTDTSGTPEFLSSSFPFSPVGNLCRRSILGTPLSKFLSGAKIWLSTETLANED
UniProt Q96HJ5: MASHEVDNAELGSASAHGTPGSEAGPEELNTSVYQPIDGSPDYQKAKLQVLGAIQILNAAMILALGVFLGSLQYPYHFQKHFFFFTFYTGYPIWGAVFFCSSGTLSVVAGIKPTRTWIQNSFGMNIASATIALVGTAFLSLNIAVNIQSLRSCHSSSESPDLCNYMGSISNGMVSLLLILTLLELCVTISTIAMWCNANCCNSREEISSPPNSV
UniProt Q9HCI7: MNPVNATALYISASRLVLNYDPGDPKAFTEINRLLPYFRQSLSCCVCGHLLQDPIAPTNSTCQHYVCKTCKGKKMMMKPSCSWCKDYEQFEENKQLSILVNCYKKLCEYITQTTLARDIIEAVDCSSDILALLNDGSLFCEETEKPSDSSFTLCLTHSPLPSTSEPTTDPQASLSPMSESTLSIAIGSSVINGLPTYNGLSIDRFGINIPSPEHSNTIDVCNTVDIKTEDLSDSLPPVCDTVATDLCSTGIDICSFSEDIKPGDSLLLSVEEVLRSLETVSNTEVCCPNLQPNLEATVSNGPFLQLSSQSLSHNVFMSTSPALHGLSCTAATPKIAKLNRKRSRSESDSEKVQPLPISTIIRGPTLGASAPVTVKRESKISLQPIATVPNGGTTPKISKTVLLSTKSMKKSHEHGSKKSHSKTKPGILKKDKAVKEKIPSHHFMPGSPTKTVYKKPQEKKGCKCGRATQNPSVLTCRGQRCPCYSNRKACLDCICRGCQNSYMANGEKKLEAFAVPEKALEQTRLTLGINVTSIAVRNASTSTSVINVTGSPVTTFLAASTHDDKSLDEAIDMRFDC
UniProt Q96EF0: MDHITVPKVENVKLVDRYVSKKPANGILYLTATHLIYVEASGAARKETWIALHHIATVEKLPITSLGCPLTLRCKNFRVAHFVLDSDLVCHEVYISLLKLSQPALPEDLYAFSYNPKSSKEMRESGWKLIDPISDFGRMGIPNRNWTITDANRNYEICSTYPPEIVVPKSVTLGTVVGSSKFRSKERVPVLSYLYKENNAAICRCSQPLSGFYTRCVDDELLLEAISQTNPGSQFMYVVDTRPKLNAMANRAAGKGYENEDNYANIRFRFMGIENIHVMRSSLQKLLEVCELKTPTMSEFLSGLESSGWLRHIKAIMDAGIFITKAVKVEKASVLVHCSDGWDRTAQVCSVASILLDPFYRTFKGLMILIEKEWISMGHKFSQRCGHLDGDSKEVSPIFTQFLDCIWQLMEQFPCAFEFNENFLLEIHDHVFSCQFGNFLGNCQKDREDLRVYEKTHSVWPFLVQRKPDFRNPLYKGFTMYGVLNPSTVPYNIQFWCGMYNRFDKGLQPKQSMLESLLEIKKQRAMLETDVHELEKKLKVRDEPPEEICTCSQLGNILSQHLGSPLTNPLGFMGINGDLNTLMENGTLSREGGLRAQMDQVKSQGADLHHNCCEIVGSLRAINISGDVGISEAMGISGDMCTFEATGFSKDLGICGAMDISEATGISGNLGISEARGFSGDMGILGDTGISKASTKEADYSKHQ
UniProt Q2M296: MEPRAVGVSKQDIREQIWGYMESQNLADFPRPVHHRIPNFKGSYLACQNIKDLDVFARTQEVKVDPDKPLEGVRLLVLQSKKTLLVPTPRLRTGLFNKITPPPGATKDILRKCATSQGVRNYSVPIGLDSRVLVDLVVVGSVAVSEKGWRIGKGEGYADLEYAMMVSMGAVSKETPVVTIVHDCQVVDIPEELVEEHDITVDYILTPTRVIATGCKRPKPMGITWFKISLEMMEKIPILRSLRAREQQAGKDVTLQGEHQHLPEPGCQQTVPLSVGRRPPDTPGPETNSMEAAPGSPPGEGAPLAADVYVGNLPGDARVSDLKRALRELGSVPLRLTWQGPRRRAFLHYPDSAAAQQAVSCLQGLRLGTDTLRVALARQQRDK
UniProt P03897, whole entry, looked up: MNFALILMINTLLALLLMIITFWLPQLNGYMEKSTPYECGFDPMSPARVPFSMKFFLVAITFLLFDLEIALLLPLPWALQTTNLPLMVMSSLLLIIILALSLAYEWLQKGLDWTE
UniProt P13640: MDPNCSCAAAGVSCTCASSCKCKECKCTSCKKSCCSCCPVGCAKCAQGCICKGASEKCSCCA
UniProt Q9H903: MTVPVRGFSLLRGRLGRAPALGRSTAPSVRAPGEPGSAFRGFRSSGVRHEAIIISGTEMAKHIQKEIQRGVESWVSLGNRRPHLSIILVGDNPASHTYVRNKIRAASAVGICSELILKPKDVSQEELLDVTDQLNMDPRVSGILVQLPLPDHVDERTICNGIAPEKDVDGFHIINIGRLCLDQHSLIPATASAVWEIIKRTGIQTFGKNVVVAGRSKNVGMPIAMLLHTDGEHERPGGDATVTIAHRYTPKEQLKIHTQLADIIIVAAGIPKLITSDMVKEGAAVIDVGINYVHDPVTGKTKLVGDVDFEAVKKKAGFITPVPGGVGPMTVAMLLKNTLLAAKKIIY
UniProt Q9P0P8: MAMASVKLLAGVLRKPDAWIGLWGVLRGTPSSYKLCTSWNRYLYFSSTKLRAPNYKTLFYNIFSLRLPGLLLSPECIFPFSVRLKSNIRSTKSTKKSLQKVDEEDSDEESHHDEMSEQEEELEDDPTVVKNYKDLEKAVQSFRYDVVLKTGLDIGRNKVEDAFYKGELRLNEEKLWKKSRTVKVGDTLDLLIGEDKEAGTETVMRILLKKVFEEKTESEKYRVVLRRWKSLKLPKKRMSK

Key:
Assay in all cases: log2 fold change, soluble protein after heating vs DMSO (PISA); higher = thermal stabilisation; K562 lysate, 10 uM; active = over 0.2 and 3.5 SD of the protein, either way, in both replicates (recomputed)
[1] = compound: C/C(=N\NC(=O)C1=CC(=CC=C1)S(=O)(=O)N2CCOCC2)/C3=C(C=CC(=C3)Cl)O
In short: (§1)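 Quantification was by TMTpro 16plex LC-MS/MS with equalised channel sums, applied to the supernatant after 21,000xg for 90 min. Samples were crude K562 extract at 1 mg/mL protein in PBS pH 7.4 with 1 mM MgCl2, treated with 10 μM compound for 30 min, heated for 3 min across 48°C-58°C, pooled and brought to 0.5% NP-40 at 4°C. Values are log-two fold changes in thermal stability relative to solvent controls, from duplicates.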

[2] = compound: C1=CC2=C(C=CC(=C2)/C=C\3/C(=O)NC(=NCC4=CC=CS4)S3)N=C1
In short: as §1

[3] = compound: C1=CC2=NC=CN=C2C=C1/C=C/3\C(=O)NC(=O)S3
In short: as §1

[4] = compound: C1=CC=C(C=C1)C2=NC(=C(N2)C3=CC=NC=C3)C4=CC(=C(C=C4)Cl)O
In short: as §1

[5] = compound: C1=CC=C2C(=C1)C3=NNC4=CC=CC(=C43)C2=O
In short: as §1

[6] = compound: C1CCN(C1)C(=O)NC2=CC=CC(=C2)NC3=NC=C(C(=N3)NCCC4=CN=CN4)Br
In short: as §1

[7] = compound: C1CN(CCC1(CC2=CC=C(C=C2)Cl)N)C3=NC=NC4=C3C=CN4
In short: as §1

IRAK-1-4 Inhibitor I = compound: C1COCCN1CCN2C3=CC=CC=C3N=C2NC(=O)C4=CC(=CC=C4)[N+](=O)[O-] [IRAK-1-4 Inhibitor I]
In short: as §1

erlotinib = compound: C#Cc1cccc(Nc2ncnc3cc(OCCOC)c(OCCOC)cc23)c1 [erlotinib]
In short: as §1

[8] = compound: C1=CC(=CC=C1C2=NC3=C(N2)C=C(C=C3)C(=O)N)OC4=CC=C(C=C4)Cl
In short: as §1

Measured: log2 fold change

MRPS14 (UniProt O60783)
inactive: [1] -0.061 | [2] 0.305 | [3] 0 | [4] -0.057 | [5] -0.007 | [6] 0.014 | [7] 0.034 | IRAK-1-4 Inhibitor I -0.084

MSH4 (UniProt O15457)
inactive: [1] -0.034 | [2] 0.118 | [4] 0.118 | [5] 0.063 | IRAK-1-4 Inhibitor I 0.151

MSL3 (UniProt Q8N5Y2)
inactive: erlotinib 0.003 | [1] 0.019 | [8] 0.004 | [2] -0.01 | [4] 0.02 | [5] -0.038 | [6] 0.03 | [7] 0.057 | IRAK-1-4 Inhibitor I -0.012

MSH5 isoform 3 (UniProt O43196)
inactive: [4] 1.15 | [6] 0.935 | [7] 0.508 | IRAK-1-4 Inhibitor I 0.577

MRPL34 (UniProt Q9BQ48)
inactive: [3] -0.017 | [6] -0.002 | [7] -0.137

MTIF3 (UniProt Q9H2K0)
inactive: erlotinib -0.037 | [1] -0.139 | [8] 0.007 | [2] 0.006 | [3] -0.012 | [4] -0.025 | [5] -0.05 | IRAK-1-4 Inhibitor I -0.044

MSANTD2 (UniProt Q6P1R3)
inactive: erlotinib -0.002 | [1] 0.106 | [8] 0.042 | [2] -0.112 | [5] -0.033 | [6] -0.126 | [7] 0.208

MT1L (UniProt Q93083)
inactive: [3] -0.397

MRPL30 isoform 2 (UniProt Q8TCC3)
inactive: erlotinib -0.004 | [8] -0.01 | [3] -0.037 | [4] -0.03 | [6] 0.067 | [7] 0.015 | IRAK-1-4 Inhibitor I 0.015

MTFMT (UniProt Q96DP5)
inactive: erlotinib 0 | [8] 0.08

MRPS21 (UniProt P82921)
inactive: [1] 0.049 | [2] 0.036 | [3] -0.051 | [5] -0.077 | [6] 0.022 | [7] -0.119

MUC19 (UniProt Q7Z5P9)
inactive: [3] -0.051 | [4] 0.107 | IRAK-1-4 Inhibitor I 0.138

MUC5AC (UniProt P98088)
inactive: [4] 0.015 | IRAK-1-4 Inhibitor I -0.074

MT-CO3 (UniProt P00414)
inactive: [1] 0.034 | [2] 0.062 | [5] 0.049

MSRA (UniProt Q9UJ68)
inactive: [6] -0.016 | [7] 0.172

MTMR10 (UniProt Q9NXD2)
inactive: erlotinib -0.099 | [8] 0.004 | [4] 0.154 | IRAK-1-4 Inhibitor I 0.082

MS4A3 (UniProt Q96HJ5)
inactive: [1] 0.169 | [2] -0.038 | [5] 0.042 | [6] 0.049 | [7] 0.026

MRPL24 (UniProt Q96A35)
inactive: erlotinib -0.033 | [1] 0.036 | [8] 0.122 | [2] 0.092 | [4] 0.027 | [5] -0.034 | [6] -0.034 | [7] -0.123 | IRAK-1-4 Inhibitor I -0.058

MSL2 (UniProt Q9HCI7)
inactive: erlotinib -0.026 | [1] -0.128 | [8] 0.196 | [2] -0.022 | [4] 0.086 | [5] 0.04 | [6] 0 | [7] -0.084 | IRAK-1-4 Inhibitor I -0.112

Reprinted from above (2 entries):
MSRA (UniProt Q9UJ68)
inactive: [6] -0.016 | [7] 0.172

MTMR10 (UniProt Q9NXD2)
inactive: erlotinib -0.099 | [8] 0.004 | [4] 0.154 | IRAK-1-4 Inhibitor I 0.082

Carrying on.

MTURN (UniProt Q8N3F0)
inactive: [4] 0.01 | [6] 0.104 | [7] -0.025 | IRAK-1-4 Inhibitor I -0.011

MT-ND6 (UniProt P03923)
inactive: erlotinib 0.039 | [8] 0.009 | [4] 0.048 | IRAK-1-4 Inhibitor I -0.044

MRPL27 (UniProt Q9P0M9)
inactive: erlotinib -0.072 | [8] 0.068 | [3] -0.019 | [4] 0.056 | [6] 0.023 | [7] 0.019 | IRAK-1-4 Inhibitor I -0.044

MTMR8 (UniProt Q96EF0)
inactive: erlotinib -0.065 | [8] -0.317 | [3] -0.01

MRPS2 (UniProt Q9Y399)
inactive: erlotinib -0.072 | [1] 0.025 | [8] -0.023 | [2] 0.038 | [4] 0.023 | [5] 0.03 | [6] 0.03 | [7] -0.031 | IRAK-1-4 Inhibitor I -0.008

MTHFSD isoform 3 (UniProt Q2M296)
inactive: erlotinib -0.01 | [1] -0.343 | [8] 0.05 | [2] 0.053 | [3] -0.037 | [4] -0.088 | [5] -0.104 | IRAK-1-4 Inhibitor I -0.004

MRPL35 (UniProt Q9NZE8)
active: [2] 0.296
inactive: erlotinib -0.005 | [1] -0.237 | [8] -0.025 | [3] 0.012 | [4] -0.011 | [5] -0.133 | IRAK-1-4 Inhibitor I -0.041

MT-ND3 (UniProt P03897)
inactive: erlotinib 0.178 | [8] -0.172 | [3] -0.075 | [4] -0.228 | [6] -0.165 | [7] -0.019 | IRAK-1-4 Inhibitor I -0.239

MT1G (UniProt P13640)
inactive: erlotinib 0.049 | [1] -0.009 | [8] 0.019 | [2] 0.054 | [3] 0.02 | [5] 0.074 | [6] -0.185 | [7] 0.147

MTHFD2L (UniProt Q9H903)
inactive: erlotinib -0.057 | [8] 0.017 | [3] 0.256

MTRES1 (UniProt Q9P0P8)
inactive: erlotinib 0 | [1] 0.142 | [8] 0.01 | [2] -0.062 | [3] -0.043 | [4] -0.016 | [5] 0.005 | [6] 0.05 | [7] 0.004 | IRAK-1-4 Inhibitor I 0.003
